Source: US4439434A, “Cephalosporin derivative and pharmaceutical composition containing the derivative” (Kureha Kagaku Kogyo Kabushiki Kaisha, priority 1981, dated 1984)
At least one read-out could not be matched to a standard name with certainty.

Test system: Staphylococcus aureus IAM 1011
Assay: Activation by rat liver homogenate (S-9 mix), proliferation-inhibiting circle, penicillin cup method
Assay type: cell-based
Conditions: 0.1 M phosphoric buffer control, 37° C. 20 min; circle diameter relative to the starting compound
Protocol: As an activating enzyme of metabolism, a rat liver homogenate (S-9, manufactured by Oriental Yeast Company, Japan) was used in the following composition per 1 ml (hereinafter referred to as S-9 mix). 0.1 ml of the solution of each of the cephalosporin derivatives of the invention prepared in Examples 1 to 10 at a concentration of 100 μg/ml was mixed with 0.9 ml of S-9 mix or 0.9 ml of 0.1 M phosphoric buffer solution (as a control) and the obtained mixture was incubated at 37° C. for 20 min. with shaking. Staphylococcus aureus IAM 1011 was inoculated into a Mueller-Hinton's culture medium and cultured at 37° C. for 18 hours. The culture medium was adjusted to a cell concentration of 1×10^8 per 1 ml and mixed with 50 times by volume of Mueller-Hinton's agar culture medium to obtain an agar plate. A penicillin cup of 8 mm in diameter was placed on the agar plate prepared above, and into the cup 0.1 ml of the mixture containing the cephalosporin derivative prepared above was introduced and allowed to stand at 4° C. for 2 hours, and then cultured at 37° C. for 18 hours to measure the diameter of a circle in which the proliferation of bacteria was inhibited (proliferation-inhibiting circle). In Table 4, the proliferation-inhibiting index is shown in the ratio (%) of the diameter of the proliferation-inhibiting circle obtained by using each of the cephalosporin derivatives of the invention to that obtained by using each of the starting compound in preparing each of the cephalosporin derivatives of the invention.

Row | Compound | Proliferation-inhibiting index (%) Before adding S-9 mix (control)
1 | COC(=O)CNC(=O)c1ccc(NC(=O)C2=C(COC(C)=O)CSC3C(NC(=O)Cc4cccs4)C(=O)N23)cc1 (stereo not shown) [Example 9, N-(4-carbomethoxymethylcarbamoylphenyl)-7-(thienyl-2-acetamido)cephalosporanic acid amide] | - (0)
2 | CC(=O)OCC1=C(C(=O)Nc2ccc(CC(=O)O)cc2)N2C(=O)C(NC(=O)Cc3cccs3)C2SC1 (stereo not shown) [Example 5, N-(4-carboxymethylphenyl)-7-(thienyl-2-acetamido)cephalosporanic acid amide] | + (1-33)
3 | CCCCOC(=O)c1ccc(NC(=O)C2=C(COC(C)=O)CSC3C(NC(=O)Cc4cccs4)C(=O)N23)cc1 (stereo not shown) [Example 4, N-(4-carbo-n-butoxyphenyl)-7-(thienyl-2-acetamido)cephalosporanic acid amide] | + (1-33)
4 | CC(=O)OCC1=C(C(=O)Nc2ccc(O)cc2)N2C(=O)C(NC(=O)Cc3cccs3)C2SC1 (stereo not shown) [Example 1, N-(4-hydroxyphenyl)-7-(thienyl-2-acetamido)cephalosporanic acid amide] | - (0)
5 | COC(=O)Cc1ccc(NC(=O)C2=C(COC(C)=O)CSC3C(NC(=O)Cc4cccs4)C(=O)N23)cc1 (stereo not shown) [Example 6, N-(4-carbomethoxymethylphenyl)-7-(thienyl-2-acetamido)cephalosporanic acid amide] | - (0)
6 | COC(=O)c1ccc(NC(=O)C2=C(COC(C)=O)CSC3C(NC(=O)Cc4cccs4)C(=O)N23)cc1 (stereo not shown) [Example 2, N-(4-carbomethoxyphenyl)-7-(thienyl-2-acetamido)cephalosporanic acid amide] | + (1-33)
7 | CCOC(=O)Cc1ccc(NC(=O)C2=C(COC(C)=O)CSC3C(NC(=O)Cc4cccs4)C(=O)N23)cc1 (stereo not shown) [Example 7, N-(4-carboethoxymethylphenyl)-7-(thienyl-2-acetamido)cephalosporanic acid amide] | - (0)
8 | COC(=O)c1ccccc1NC(=O)C1=C(COC(C)=O)CSC2C(NC(=O)Cc3cccs3)C(=O)N12 (stereo not shown) [Example 10, N-(2-carbomethoxyphenyl)-7-(thienyl-2-acetamido)cephalosporanic acid amide] | - (0)
9 | CCOC(=O)c1ccc(NC(=O)C2=C(COC(C)=O)CSC3C(NC(=O)Cc4cccs4)C(=O)N23)cc1 (stereo not shown) [Example 3, N-(4-carboethoxyphenyl)-7-(thienyl-2-acetamido)cephalosporanic acid amide] | + (1-33)
10 | CC(=O)OCC1=C(C(=O)Nc2ccc(C(=O)NCC(=O)O)cc2)N2C(=O)C(NC(=O)Cc3cccs3)C2SC1 (stereo not shown) [Example 8, N-(4-carboxymethylcarbamoylphenyl)-7-(thienyl-2-acetamido)cephalosporanic acid amide] | + (1-33)
